Assay results as given in the supplement of paper PMC4683952.
Counter-ions that a name gives are not always drawn. Screen size: about 1,200 compounds; about 50 (4%) showed activity. No stated cut-off is given here; in the data, all actives reach 1.3 or more but so do some inactives. Some of the results follow.

What follows are compounds tested on Lgr5 (MarsCy1-Lgr5-EGFP, U2OS) (assay: cell-surface Lgr5 expression (SCi1 fluorescence, background-subtracted) relative to WT DMSO (fold of DMSO control); higher = more Lgr5 at the plasma membrane, active = hit call of the paper). Details: U2OS MarsCy1-Lgr5-EGFP stable; treatment time: overnight; 16 µM; library: Johns Hopkins Clinical Compound Library.

Row | SMILES | cell-surface Lgr5 expression
1 | CCCCC(CC)COC(=O)CC(C(=O)OCC(CC)CCCC)S(=O)(=O)O (stereo unspecified) [Docusate sodium (Dioctyl Sulfosuccinate, sodium salt)] | inactive: 1.23
2 | CCCCCCCCCC(=O)N[C@@H](Cc1c[nH]c2ccccc12)C(=O)N[C@H](CC(N)=O)C(=O)N[C@@H](CC(=O)O)C(=O)N[C@@H]1C(=O)NCC(=O)N[C@@H](CCCN)C(=O)N[C@@H](CC(=O)O)C(=O)N[C@H](C)C(=O)N[C@@H](CC(=O)O)C(=O)NCC(=O)N[C@H](CO)C(=O)N[C@@H]([C@H](C)CC(=O)O)C(=O)N[C@@H](CC(=O)c2ccccc2N)C(=O)O[C@@H]1C [Daptomycin] | inactive: 0.72
3 | N=C(N)NCCC[C@H](NC(=O)[C@@H]1CCCN1C(=O)[C@@H]1CSSC[C@H](N)C(=O)N[C@@H](Cc2ccc(O)cc2)C(=O)N[C@@H](Cc2ccccc2)C(=O)N[C@@H](CCC(N)=O)C(=O)N[C@@H](CC(N)=O)C(=O)N1)C(=O)NCC(N)=O [Vasopressin] | inactive: 0.743
4 | CC(=O)OC[C@H]1O[C@@H]([S-])[C@H](OC(C)=O)[C@@H](OC(C)=O)[C@@H]1OC(C)=O.CCP(CC)CC.[Au+] [Auranofin] | inactive: 0.614
5 | NC(=O)NC(NC(N)=O)C(=O)O [Allantoic acid] | inactive: 0.921
6 | [O-2].[Zn+2] [Zinc oxide] | inactive: 0.734
7 | CCC1(c2ccccc2)C(=O)NCNC1=O [Primidone] | inactive: 0.503
8 | N#Cc1ccc2c(c1)N(CCCN1CCC(O)CC1)c1ccccc1S2 [Periciazine (propericiazine)] | inactive: 0.978
9 | Oc1c(Cl)cc(Cl)c2cccnc12 [Chloroxine (5,7-Dichloro-8-hydroxyquinoline)] | inactive: 0.97
10 | c1ccc(-c2ccc(C(c3ccccc3)n3ccnc3)cc2)cc1 (stereo unspecified) [Bifonazole] | inactive: 1.04
11 | CCN(CC)C(=S)S [Ditiocarb (Diethyldithiocarbamic acid sodium, thiocarb)] | inactive: 1.05
12 | C[C@H]1[C@H](C)CC[C@]2(C(=O)O)CC[C@]3(C)C(=CC[C@@H]4[C@@]5(C)CC[C@H](O)C(C)(C)[C@@H]5CC[C@]43C)[C@H]12 [Ursolic acid] | inactive: 0.799
13 | O=C(c1ccc(F)cc1)C1CCN(CCn2c(=O)[nH]c3ccccc3c2=O)CC1 [Ketanserin] | inactive: 1.15
14 | CCN(CC)C(=O)c1ccc(O)c(OC)c1 [Ethamivan (Vanillic acid diethylamide)] | inactive: 1
15 | Cc1cc2nc3c(=O)[nH]c(=O)nc-3n(C[C@H](O)[C@H](O)[C@H](O)CO)c2cc1C [Riboflavin] | inactive: 0.694
16 | CCCOc1ccc2[nH]c(NC(=O)OC)nc2c1 [Oxibendazole] | inactive: 1.15
17 | CN(C)CCOC(c1ccccc1)c1ccccc1.Cn1c(=O)c2[nH]c(Cl)nc2n(C)c1=O [Dimenhydrinate] | inactive: 0.955
18 | O=C1NCC2(CCN(CCc3ccccc3)CC2)O1 [Fenspiride] | inactive: 1.08
19 | Clc1ccc2c(c1)CCc1cccnc1C2=C1CCNCC1 [Desloratadine] | inactive: 0.874

Some of the entries above, reformatted.
Row,SMILES,cell-surface Lgr5 expression
5,NC(=O)NC(NC(N)=O)C(=O)O [Allantoic acid],inactive: 0.921
6,[O-2].[Zn+2] [Zinc oxide],inactive: 0.734
7,CCC1(c2ccccc2)C(=O)NCNC1=O [Primidone],inactive: 0.503
8,N#Cc1ccc2c(c1)N(CCCN1CCC(O)CC1)c1ccccc1S2 [Periciazine (propericiazine)],inactive: 0.978
9,"Oc1c(Cl)cc(Cl)c2cccnc12 [Chloroxine (5,7-Dichloro-8-hydroxyquinoline)]",inactive: 0.97
10,c1ccc(-c2ccc(C(c3ccccc3)n3ccnc3)cc2)cc1 (stereo unspecified) [Bifonazole],inactive: 1.04
11,"CCN(CC)C(=S)S [Ditiocarb (Diethyldithiocarbamic acid sodium, thiocarb)]",inactive: 1.05
12,C[C@H]1[C@H](C)CC[C@]2(C(=O)O)CC[C@]3(C)C(=CC[C@@H]4[C@@]5(C)CC[C@H](O)C(C)(C)[C@@H]5CC[C@]43C)[C@H]12 [Ursolic acid],inactive: 0.799
13,O=C(c1ccc(F)cc1)C1CCN(CCn2c(=O)[nH]c3ccccc3c2=O)CC1 [Ketanserin],inactive: 1.15
14,CCN(CC)C(=O)c1ccc(O)c(OC)c1 [Ethamivan (Vanillic acid diethylamide)],inactive: 1
15,Cc1cc2nc3c(=O)[nH]c(=O)nc-3n(C[C@H](O)[C@H](O)[C@H](O)CO)c2cc1C [Riboflavin],inactive: 0.694
16,CCCOc1ccc2[nH]c(NC(=O)OC)nc2c1 [Oxibendazole],inactive: 1.15
17,CN(C)CCOC(c1ccccc1)c1ccccc1.Cn1c(=O)c2[nH]c(Cl)nc2n(C)c1=O [Dimenhydrinate],inactive: 0.955

More records

Row | SMILES | cell-surface Lgr5 expression
20 | CC(=O)O[C@]1(C(C)=O)CC[C@H]2[C@@H]3C=C(Cl)C4=CC(=O)CC[C@]4(C)[C@H]3CC[C@@]21C [Chlormadinone acetate] | inactive: 1.09
21 | Cc1cc(O)c(C(=O)N[C@@H](C(=O)N[C@@H]2C(=O)N3C(C(=O)O)=C(CSc4nnnn4C)CS[C@H]23)c2ccc(O)cc2)cn1 [Cefpiramide] | inactive: 0.869
22 | CO[C@H]1/C=C/O[C@@]2(C)Oc3c(C)c(O)c4c(O)c(c5c(nc6cc(C)ccn65)c4c3C2=O)NC(=O)/C(C)=C\C=C\[C@H](C)[C@H](O)[C@@H](C)[C@@H](O)[C@@H](C)[C@H](OC(C)=O)[C@@H]1C [Rifaximin] | inactive: 1.08
23 | Clc1cccc(Cl)c1NC1=NCCN1 [Clonidine] | inactive: 0.984
24 | CCCCCCCCCCCCCCCC(=O)OC[C@H](O)[C@H]1OC(=O)C(O)=C1O [Ascorbic acid 6-palmitate] | inactive: 1.15
25 | NCCCCCC(=O)O [6-Aminocaproic acid] | inactive: 1.21
26 | CN(C)C(=N)NC(=N)N [Metformin (1,1-Dimethylbiguanide hydrochloride)] | inactive: 1.07
27 | CC=CC(=O)N(CC)c1ccccc1C [Crotamiton (N-ethyl-o-crotonotoluidine)] | inactive: 1.22
28 | CCCCCO [1-Pentanol] | inactive: 1.05
29 | O=C1Nc2ccc(Cl)cc2[C@@](C#CC2CC2)(C(F)(F)F)O1 [Efavirenz] | inactive: 0.949
30 | Cc1ncc(CO)c(CN)c1O [Pyridoxamine, Dihydrochloride] | inactive: 1.02
31 | Cc1ncc(CO)c(CN)c1O [Pyridoxamine dihydrochloride] | inactive: 0.999
32 | O=C(O)c1ccccc1Nc1cccc(C(F)(F)F)c1 [Flufenamic acid] | inactive: 1.19
33 | Clc1ccc(C(c2ccccc2Cl)C(Cl)Cl)cc1 (stereo unspecified) | inactive: 1.23
34 | O=C1O[C@H]([C@@H](O)CO)C(O)=C1O [Ascorbic acid] | inactive: 0.81
35 | CSCC[C@H](NC(=O)[C@H](CO)NC(=O)[C@H](Cc1ccc(O)cc1)NC(=O)[C@@H](N)CO)C(=O)N[C@@H](CCC(=O)O)C(=O)N[C@@H](Cc1cnc[nH]1)C(=O)N[C@@H](Cc1ccccc1)C(=O)N[C@@H](CCCNC(=N)N)C(=O)N[C@@H](Cc1c[nH]c2ccccc12)C(=O)NCC(=O)N[C@@H](CCCCN)C(=O)N1CCC[C@H]1C(=O)N[C@H](C(=O)NCC(=O)N[C@@H](CCCCN)C(=O)N[C@@H](CCCCN)C(=O)N[C@@H](CCCNC(=N)N)C(=O)N[C@@H](CCCNC(=N)N)C(=O)N1CCC[C@H]1C(=O)N[C@H](C(=O)N[C@@H](CCCCN)C(=O)N[C@H](C(=O)N[C@@H](Cc1ccc(O)cc1)C(=O)N1CCC[C@H]1C(=O)N[C@@H](CC(N)=O)C(=O)NCC(=O)N[C@@H](C)C(=O)N[C@@H](CCC(=O)O)C(=O)N[C@@H](CC(=O)O)C(=O)N[C@@H](CCC(=O)O)C(=O)N[C@@H](CO)C(=O)N[C@@H](C)C(=O)N[C@@H](CCC(=O)O)C(=O)N[C@@H](C)C(=O)N[C@@H](Cc1ccccc1)C(=O)N1CCC[C@H]1C(=O)N[C@@H](CC(C)C)C(=O)N[C@@H](CCC(=O)O)C(=O)N[C@@H](Cc1ccccc1)C(=O)O)C(C)C)C(C)C)C(C)C [Corticotropin A (Adrenocorticotropic hormone)] | inactive: 0.747
36 | Nc1ccc(/N=N/c2ccccc2)c(N)n1 [Phenazopyridine] | inactive: 1.09
37 | CCc1cc(Cl)c(OC)c(C(=O)NC[C@@H]2CCCN2CC)c1O [Eticlopride hydrochloride (S)] | active: 1.52
38 | CN(C)CCOC(=O)C(c1ccccc1)C1(O)CCCC1 (stereo unspecified) [Cyclopentolate hydrochloride] | inactive: 1.09

Row | SMILES | cell-surface Lgr5 expression
39 | Nc1nc(/C(=C/CC(=O)O)C(=O)N[C@@H]2C(=O)N3C(C(=O)O)=CCS[C@H]23)cs1 [Ceftibuten] | inactive: 0.828
40 | C[N+](C)(CCOc1ccccc1)Cc1ccccc1.O=C([O-])c1cc2ccccc2cc1O [Bephenium hydroxy-naphthoate] | inactive: 1.05
41 | Cc1nc2c([nH]1)c(=O)n(C)c(=O)n2Cc1ccco1 [Furafylline] | inactive: 1.07
42 | CC(NCCc1ccc(O)cc1)C(O)c1ccc(O)cc1 (stereo unspecified) [Ritodrine] | inactive: 1.26
43 | O=S(=O)([O-])[O-].[Cu+2] [Copper (II) sulfate] | inactive: 1.27
44 | NC1CCN(c2c(F)cc3c(=O)c(C(=O)O)cn(C4CC4)c3c2Cl)C1 (stereo unspecified) [Clinafloxacin HCl] | inactive: 0.853
45 | CCC1(C)CC(=O)NC1=O (stereo unspecified) [Ethosuximide] | inactive: 0.645
46 | O=[N+]([O-])c1ccc(O)c2ncccc12 [Nitroxoline (8-hydroxy 5-nitroquinoline)] | inactive: 0.36
47 | CC(O)(CC(=O)O)CC(=O)O [Meglutol (3-Hydroxy-3-methylglutaric acid)] | inactive: 1.25
48 | O=P([O-])([O-])[O-].O=P([O-])([O-])[O-].O=P([O-])([O-])[O-].[Ca+2].[Ca+2].[Ca+2].[Ca+2].[Ca+2].[OH-] [Durapatite (Hydroxyapatite)] | inactive: 0.922
49 | CN1CCN2c3ccccc3Cc3ccccc3C2C1 (stereo unspecified) [Mianserin] | inactive: 1.19
50 | N[C@@H](Cc1ccc(O)c(O)c1)C(=O)O [Levodopa (L-beta-3,4-Dihydroxyphenylananine)] | inactive: 0.449
51 | CN(C)CCc1c[nH]c2ccc(CS(=O)(=O)N3CCCC3)cc12 [Almotriptan] | inactive: 0.669
52 | CCC(=O)[O-].CCC(=O)[O-].[Ca+2] [Calcium propionate] | inactive: 1
53 | O=C(NC(Cc1cc(=O)[nH]c2ccccc12)C(=O)O)c1ccc(Cl)cc1 (stereo unspecified) [Rebamipide] | inactive: 1.11
54 | C[N+](C)(C)CCOC(N)=O [Carbachol (Carbamylcholine chloride)] | inactive: 1.18
55 | CC(C)(C)NC[C@H](O)COc1cccc2c1CCCC2=O [Levobunolol, HCl (-)] | inactive: 0.705
56 | Cc1nc2sccn2c(=O)c1CCN1CCC(=C(c2ccc(F)cc2)c2ccc(F)cc2)CC1 [Ritanserin] | inactive: 1.15

A different layout for part of the listing above.
O=S(=O)([O-])[O-].[Cu+2] [Copper (II) sulfate]
  cell-surface Lgr5 expression: inactive: 1.27
NC1CCN(c2c(F)cc3c(=O)c(C(=O)O)cn(C4CC4)c3c2Cl)C1 (stereo unspecified) [Clinafloxacin HCl]
  cell-surface Lgr5 expression: inactive: 0.853
